{"source": "PubChem BioAssay AID1662", "about": "(Broad Institute, 2009)", "note": "Screen size: about 300,000 compounds; about 4,000 (1.3%) were called active. Inconclusive means that the source gave no clear call. Such entries were picked first, then a sample of the others.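 Rule for the calls: active = mean replicate score, as percent of positive control median, at least 50; inconclusive = mean below 50 but one replicate at or above 50; inactive = mean and every replicate below 50.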"}
{"test": "kanamycin survival loss of SKKanGAS strain – BacTiter-Glo luminescence, streptokinase expression inhibitor project, primary screen (AID 1662);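 note: strain carries kanamycin resistance gene driven by streptokinase promoter and grows in 40 µg/ml kanamycin; loss of luminescence reflects streptokinase promoter inhibition or plain growth inhibition; 0% = median of DMSO wells and 100% = positive control at its reference dose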", "details": "S. pyogenes SKKanGAS, kanamycin growth, 6 h, at 7.5 µM, hits give high values"}
{"smiles": "O=C(Nc1ccc(-c2csc(Nc3ccccc3)n2)cc1)c1cc([N+](=O)[O-])cc(C(F)(F)F)c1", "inhibition": "inconclusive: 48.9%"}
{"smiles": "CCN(CCn1cccn1)C(=O)CC1C(=O)NCCN1CCc1ccccc1", "note": "(centres undefined)", "inhibition": "inconclusive: 42.5%"}
{"smiles": "O=C(N/N=C/c1cn(-c2ccccc2)nc1-c1cc2ccccc2o1)c1c[nH]c2ccccc12", "inhibition": "inconclusive: 27.2%"}
{"smiles": "COc1cccc(C2C3=C(N=c4s/c(=C\\c5cccc(O)c5)c(=O)n42)c2ccccc2CC3)c1OC", "note": "(centres undefined)", "inhibition": "inconclusive: 47.7%"}
{"smiles": "Cc1cccc(NC(=O)Cn2c(C)c(C#N)c3ccccc32)c1C", "inhibition": "inactive: -1.63%"}
{"smiles": "Cc1sc2ncnc(N3CCC(C(=O)Nc4ccc(Cl)cc4Cl)CC3)c2c1C", "inhibition": "active: 50.3%"}
{"smiles": "Cc1ccc(/C(N)=N/OC(=O)Cc2cccc3ccccc23)cc1", "inhibition": "inactive: -8.22%"}
{"smiles": "Cc1nnc(Sc2cc(NCCCO)c([N+](=O)[O-])c3nonc23)s1", "inhibition": "inconclusive: 48.1%"}
{"smiles": "Cc1ccccc1NC(=O)C(=O)NNC(=O)COc1ccc2ccccc2c1", "inhibition": "inconclusive: 31.4%"}
{"smiles": "Cc1ccccc1OCC(=O)NC(=S)Nc1ccc(Br)c(C)n1", "inhibition": "inconclusive: 32.5%"}
{"smiles": "C/C(=N\\NC(=O)COc1ccc(C)cc1C(C)C)c1cc2ccccc2o1", "inhibition": "active: 57.4%"}
{"smiles": "O=C(C[N+]1(CC#Cc2ccccc2)CCCCC1)c1ccc(Cl)cc1", "inhibition": "inactive: 7.14%"}
{"smiles": "Cc1ccccc1N1CCN(C(=O)CCN2C(=O)c3ccccc3C2=O)CC1", "inhibition": "inconclusive: 36.7%"}
{"smiles": "O=C(CCN1C(=O)/C(=C/c2ccccc2Cl)SC1=S)NNC(=O)c1ccccc1O", "inhibition": "active: 60.3%"}
{"smiles": "Cc1cccc(-n2ncc3c2CCCC3NC(=O)CCN2Cc3ccccc3C2=O)c1C", "note": "(centres undefined)", "inhibition": "inconclusive: 41.3%"}
{"smiles": "CC(OC(=O)Cc1n[nH]c(=O)c2ccccc12)C(=O)Nc1ccc(Cl)cn1", "note": "(centres undefined)", "inhibition": "active: 67.5%"}
{"smiles": "CCn1cnc2c1c(=O)n(CC(=O)Nc1cc(C)on1)c(=O)n2Cc1ccccc1", "inhibition": "inconclusive: 35.9%"}
{"smiles": "Cn1c(=O)c(NCCc2ccccc2)c2c3c(cccc31)C(=O)c1ccccc1-2", "inhibition": "inconclusive: 38.5%"}
{"smiles": "COc1ccc(C(=O)Nc2ccc(C3(C#N)CCCC3)cc2)cc1OC", "inhibition": "inactive: 0.181%"}
{"smiles": "O=C(OCC(=O)N1CCN(c2ccccc2)CC1)c1cccc(Cl)c1", "inhibition": "inconclusive: 13%"}
{"smiles": "O=C(NNC(=S)NC(=O)c1ccccc1)c1cccc([N+](=O)[O-])c1", "inhibition": "inconclusive: 47.3%"}
{"smiles": "Cc1c(-n2cc(C(=O)c3cc(Br)ccc3O)cc(C#N)c2=O)c(=O)n(-c2ccccc2)n1C", "inhibition": "inconclusive: 22.6%"}
{"smiles": "O=C(N/N=C/c1ccc(O)cc1)c1[nH]c2ccc(Br)cc2c1-c1ccccc1", "inhibition": "inconclusive: 31.3%"}
{"smiles": "CC1(c2ccccc2)NC(=O)N(CC(=O)N2CCN(S(=O)(=O)c3cccs3)CC2)C1=O", "note": "(centres undefined)", "inhibition": "inactive: -4%"}
{"smiles": "O=C(Nc1ccccc1C(=O)Nc1nnc(C(F)(F)F)s1)c1ccccc1Cl", "inhibition": "active: 101%"}
{"smiles": "Cc1ccc(Cc2cnc(NC(=O)C3CCCO3)s2)cc1", "note": "(centres undefined)", "inhibition": "inactive: 3.74%"}
{"smiles": "O=C(Nc1nc2ccccc2[nH]1)c1cccc(Br)c1", "inhibition": "inconclusive: 43.7%"}
{"smiles": "CS(=O)(=O)Nc1ccc(C(=O)Nc2ccccc2C(=O)NCc2ccco2)cc1", "inhibition": "inconclusive: 45.4%"}
{"smiles": "Cc1cccc(C(=O)Nc2nnc(COc3ccccc3)s2)c1", "inhibition": "inactive: -7.88%"}
{"smiles": "COc1ccccc1C(=O)NC(=S)Nc1ccc(NC(=O)c2ccco2)cc1", "inhibition": "inconclusive: 48.5%"}
{"smiles": "COc1ccc(O)c(C(=O)c2coc(=N)c(C(=O)Nc3ccc(SC(F)F)cc3)c2)c1", "inhibition": "inconclusive: 35.7%"}
{"smiles": "COc1ccc2cc(C3CC(c4ccco4)=NN3S(=O)(=O)c3ccccc3)c(Cl)nc2c1", "note": "(centres undefined)", "inhibition": "inactive: 13.9%"}
{"smiles": "CCCN(CC(=O)Nc1ccccc1OC)C(=O)c1ccncc1", "inhibition": "inconclusive: 28.6%"}
{"smiles": "O=C(Nc1nc(-c2ccccn2)cs1)C12CC3CC(CC(O)(C3)C1)C2", "inhibition": "inconclusive: 36.9%"}
{"smiles": "CC(C)CCSc1nc(N)c(C#N)cc1C#N", "inhibition": "inactive: -2.26%"}
{"smiles": "CC(C)Cc1nnc(NC(=O)CCC(=O)NC2CCCCCC2)s1", "inhibition": "inactive: 2.64%"}
{"smiles": "Cc1ccc2c(c1)c(C)c(C)n2CC(O)Cn1nc(C)c(Br)c1C", "note": "(centres undefined)", "inhibition": "active: 58.8%"}
{"smiles": "COc1ccc2oc(C(=O)N3CCN(C(c4ccccc4)c4ccccc4)CC3)c(C)c2c1", "inhibition": "inconclusive: 42.3%"}
{"smiles": "c1ccc(-c2nc(N3CCNCC3)nc3ccccc23)cc1", "inhibition": "inactive: 1.82%"}
{"smiles": "COC(=O)c1csc2c(C(F)(F)F)cc(N3CCN(C(=O)Nc4ccccc4)CC3)nc12", "inhibition": "inactive: -3.77%"}
{"smiles": "CCOC(=O)c1cnc(-n2nc(C)cc2C)nc1Nc1ccc(C)cc1", "inhibition": "active: 95.1%"}
{"smiles": "COc1ccc(N2CCN(CC(=O)Nc3nc4c(s3)CC(C)CC4)CC2)cc1", "note": "(centres undefined)", "inhibition": "inconclusive: 44.7%"}
{"smiles": "CCCn1cc(CN2CCC(n3nccc3NC(=O)c3ccccc3)CC2)c(C)n1", "inhibition": "inconclusive: 43.6%"}
{"smiles": "Cc1ccc(-c2cc(C(=O)N3CCN(c4ccccc4O)CC3)c3ccccc3n2)cc1", "inhibition": "active: 53.6%"}
{"smiles": "CC(=O)Nc1nnc(S(=O)(=O)N2CCN(c3ccc(Cl)cc3[N+](=O)[O-])CC2)s1", "inhibition": "inconclusive: 48.4%"}
{"smiles": "O=C(CSc1nnc(NC(=O)c2cccc(Cl)c2)s1)NCC1CCCO1", "note": "(centres undefined)", "inhibition": "inconclusive: 46.6%"}
{"smiles": "C=CCn1c(NC(=O)c2ccccc2)nc2ccccc21", "inhibition": "active: 65.4%"}
{"smiles": "COc1ccc(OC)c(NC(=O)c2cccc3c2C(=O)N(C2CCCCC2)C3)c1", "inhibition": "inactive: 0.955%"}
{"smiles": "CN(C(=O)c1ccncc1)C1CCS(=O)(=O)C1", "note": "(centres undefined)", "inhibition": "inactive: 1.26%"}
{"smiles": "O=c1c2cccnc2[nH]c(=S)n1CCCN1CCN(c2ccccc2F)CC1", "inhibition": "inactive: -0.513%"}
{"smiles": "CCCCC(=O)Oc1c(S(=O)(=O)c2ccccc2)c(C)nn1C(C)(C)C", "inhibition": "inactive: 1.45%"}
{"smiles": "c1coc(CN(Cc2ccco2)c2ncnc3c2oc2ccccc23)c1", "inhibition": "inconclusive: 22.7%"}
{"smiles": "CCCCCCCc1nn2c(=O)cc(O)nc2s1", "inhibition": "inconclusive: 43.4%"}
{"smiles": "Cc1ccc(C(=O)NC(=S)N2CCN(c3cc(C)ccc3C)CC2)cc1", "inhibition": "inconclusive: 47.3%"}
{"smiles": "Cc1ccc(CCCOC(=O)C[N+]2(C)CCOCC2)cc1", "inhibition": "inactive: 2.5%"}
{"smiles": "CCc1ccc(N(CC(=O)NC2CC2)S(=O)(=O)c2ccc(C)cc2)cc1", "inhibition": "inconclusive: 37.9%"}
{"smiles": "Cc1cc(-c2c(C)[nH]n(-c3ccc(Cl)cc3)c2=O)n[nH]1", "inhibition": "inconclusive: 49.3%"}
{"smiles": "O=C(Cc1ccccc1)N/N=C/c1ccccn1", "inhibition": "inconclusive: 33.3%"}
{"smiles": "CCS(=O)(=O)c1nc(S(=O)(=O)c2ccc(Cl)cc2)c(N2CCC(O)CC2)s1", "inhibition": "inactive: -7.32%"}
{"smiles": "NS(=O)(=O)c1cccc(NC(=O)CSc2nc3ccccc3c(=O)n2CCCN2CCOCC2)c1", "inhibition": "inactive: 18%"}
{"smiles": "COc1ccc(/C=C2\\Sc3ccc(C(=O)N4CCOCC4)cc3N(C)C2=O)cc1", "inhibition": "active: 59.9%"}
{"smiles": "COc1ccccc1Cn1nnc2c(=O)[nH]c(C3CCN(C(=O)c4ccccc4Cl)CC3)nc21", "inhibition": "active: 90.7%"}
{"smiles": "O=[N+]([O-])c1cccc(NC(=S)Nc2nc(-c3ccccc3Cl)cs2)c1", "inhibition": "inconclusive: 41.5%"}
{"smiles": "COc1cccc2sc3ccc(C#Cc4ccc(N)cc4)cc3c(=O)c12", "inhibition": "active: 76%"}
{"smiles": "O=C(Nc1ccccn1)c1ccc(Cl)s1", "inhibition": "inactive: -2.52%"}
{"smiles": "c1ccc(-c2noc(-c3ccccc3-c3ccccc3)n2)cc1", "inhibition": "active: 75.3%"}
{"smiles": "CCOC(=O)/C(=C\\Nc1ccccc1C(F)(F)F)Sc1ncc(C(F)(F)F)cc1Cl", "inhibition": "inconclusive: 49.3%"}
{"smiles": "Cn1c(SCC(=O)Nc2cccc3ccccc23)nc(O)cc1=O", "inhibition": "inconclusive: 45.6%"}
{"smiles": "COc1ccc(S(=O)(=O)N/N=C(/C)c2ccncc2)cc1", "inhibition": "inconclusive: 39.6%"}
{"smiles": "C=CCSc1nc2ccccc2c(=O)n1Cc1ccccc1", "inhibition": "inconclusive: 47.3%"}
{"smiles": "Cc1cccc(-n2c(O)c(C=NC3CCS(=O)(=O)C3)c3ccccc3c2=O)c1C", "note": "(centres undefined)", "inhibition": "inactive: 35.6%"}
{"smiles": "N/C(=N\\N=C/c1ccc(Br)cc1)N/N=C\\c1ccc(Br)cc1", "inhibition": "inconclusive: 48.5%"}
{"smiles": "Cc1ccc(C(=O)C(c2ccccc2)N2Cc3ccccc3C2=N)cc1", "note": "(centres undefined)", "inhibition": "inconclusive: 45.3%"}
{"smiles": "C=C(C)C1Cc2c(C)nn(-c3ccccn3)c2C1", "note": "(centres undefined)", "inhibition": "inactive: 15.7%"}
{"smiles": "Oc1ccccc1C1CCCCC1c1ccccc1", "note": "(centres undefined)", "inhibition": "inconclusive: 49.5%"}
{"smiles": "O=C(CSc1n[nH]c(-c2cccnc2)n1)Nc1ccc([N+](=O)[O-])cc1", "inhibition": "inactive: -0.27%"}
{"smiles": "O=C(NCc1ccccc1)C(=O)Nc1nc(-c2ccccc2)cs1", "inhibition": "inconclusive: 48.7%"}
{"smiles": "O=S(=O)(NCCc1ccccn1)c1cccs1", "inhibition": "inactive: 4.29%"}
{"smiles": "COc1ccc(N2C(=O)C3C4C=CC(C4)C3C2=O)c([N+](=O)[O-])c1", "note": "(centres undefined)", "inhibition": "inconclusive: 13.5%"}
{"smiles": "Cc1c(C(=O)N/N=C/c2c(O)ccc3ccccc23)nnn1-c1nonc1N", "inhibition": "inconclusive: 48.3%"}
{"smiles": "Cc1ccc(NC(=O)CSc2n[nH]c(-c3ccco3)n2)c(C)c1", "inhibition": "inconclusive: 6.85%"}
{"smiles": "COc1ccc2cc(C(=O)NCc3ccccc3)c(=Nc3ccc(C(=O)O)cc3)oc2c1", "inhibition": "active: 59.4%"}
{"smiles": "COc1ccc(C(=O)Nc2nc3ccccc3s2)c(OC)c1", "inhibition": "active: 53.2%"}
{"smiles": "CCCCCCCCCC[n+]1cccc2c3ccccc3ccc21", "inhibition": "inconclusive: 32%"}
{"smiles": "O=C(N/N=C/c1cccc(C(F)(F)F)c1)c1ccc(O)cc1", "inhibition": "inconclusive: 20.4%"}
{"smiles": "Cc1[nH]n2c(=O)c(C#N)c(-c3ccccc3)nc2c1-c1ccccc1", "inhibition": "inconclusive: 41.4%"}
{"smiles": "COc1ccc(-n2cnnc2SCc2cnc(-c3ccccc3)s2)cc1", "inhibition": "inconclusive: 10.8%"}
{"smiles": "CC(C)(C)c1ccc(OCC(=O)N2CCN(c3ncccn3)CC2)cc1", "inhibition": "inconclusive: 41.3%"}
{"smiles": "COc1ccc(NC(=O)CSc2nc(O)cc(=O)n2-c2ccc(OC)cc2)cc1", "inhibition": "active: 53.6%"}
